Measurements reported in the supplement of paper PMC3334620.
Over roughly 33,000 sequences, “E-score (-0.5 to 0.5)” has its median near -0.0014; the highest 2% begin near 0.25. This is one part of the list.

target: T1, Cad1 (UniProt P24813); test: PBM E-score (8-mer binding enrichment) (E-score (-0.5 to 0.5)); higher = stronger / more preferred TF binding; details: protein concentration: 100 nM; construct: GST-full length
T1 sequence: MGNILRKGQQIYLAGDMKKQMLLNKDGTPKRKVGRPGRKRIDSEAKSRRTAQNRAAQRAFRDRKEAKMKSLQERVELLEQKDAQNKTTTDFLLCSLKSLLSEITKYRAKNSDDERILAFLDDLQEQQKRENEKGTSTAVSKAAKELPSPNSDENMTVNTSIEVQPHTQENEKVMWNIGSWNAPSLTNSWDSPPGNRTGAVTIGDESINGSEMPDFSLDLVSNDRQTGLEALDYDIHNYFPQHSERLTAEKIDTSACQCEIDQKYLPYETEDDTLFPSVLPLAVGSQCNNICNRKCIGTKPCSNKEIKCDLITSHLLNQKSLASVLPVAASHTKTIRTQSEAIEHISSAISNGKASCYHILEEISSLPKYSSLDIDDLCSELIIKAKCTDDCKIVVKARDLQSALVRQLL
In short: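 The E-score, a modified Wilcoxon-Mann-Whitney statistic, was computed by the Universal PBM Analysis Suite for every ungapped eight-base word pooled with its reverse complement. Scans behind it were normalised with masliner after bound GST-tagged yeast transcription factors were detected with fluorescent anti-GST. The proteins, at about 100-200 nM, had been applied to universal all-10-mer Agilent arrays made double-stranded by primer extension.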

Sequence | PBM E-score
AATTTGAA | 0.189
AGCCGAGG | 0.14
GATCTAGC | -0.0963
CCGATAAG | 0.0791
CTATATGC | 0.0505
CGACGCTA | -0.0416
AACATACT | 0.0267
TAACACCA | 0.0194
CATAAGCA | 0.0863
ACATGTTA | 0.135
CTAGTATC | 0.0905
ACTTAAAG | -0.246
AATGTTAT | 0.18
ACCACCCC | -0.248
CCTTACCA | -0.0626
CCAGCACC | -0.289
CACCTCTA | 0.11
CTGTTAAC | 0.258
GGCCAGTA | -0.117
AGATCCCG | 0.281
AAGGTTAG | -0.106
CGATCAGC | 0.118
AGGCTACA | 0.00724
ACTCTCAA | 0.0325
CAGGGCCC | -0.0619

Sequence | PBM E-score
CGTATTTA | 0.142
AAATTCGC | 0.179
CGCTGCTC | -0.19
CCTTAATC | -0.138
CTTTGGAA | -0.113
CGGATATA | 0.246
CTACAATC | 0.155
CCGACAGG | 0.0125
CAATACAG | -0.0308
ATCGCGTG | 0.186
CAACGCCC | -0.155
TAAACAAA | -0.0115
CGGCTTGA | 0.0352
CACAGAGC | 0.00635
AGATTTTG | 0.103
GACATAAC | 0.19
ACTCAAGT | -0.0786
GGGCTACA | -0.129
TGCGGACA | 0.212
AGTGTAGG | 0.0119
AACAACAT | 0.115
GCGCTTAC | 0.299
CACCCGCA | -0.169
AACGTGCC | -0.144
AGCTTCTG | -0.0643

Sequence | PBM E-score
GGCACTGA | -0.0766
CTAACTTC | 0.105
AGAACATC | 0.157
AATGTGCG | 0.164
ACAAAGGC | -0.0281
ATGAGGGC | -0.137
GGACCTCA | -0.133
GCTTCAAA | -0.105
CCGCAAGC | -0.193
GTCGCGAC | 0.391
AACCTATG | 0.00554
AGCTTAAA | 0.0315
CGGTAAGC | 0.083
ACTGATTC | -0.0134
GAAATTCA | 0.169
CTTAGCAA | 0.152
CACGTGCA | 0.125
AGCATATG | -0.0736
ATTGGGGC | -0.0195
AAGGCCCG | -0.176
AAGATAGG | -0.0466
ACAAATCG | 0.161
CCTAGGAC | -0.144
GAGTCAGC | 0.0421
CCCCTCAC | -0.0372

Rewritten as a markdown table: part of the list above

| Sequence | PBM E-score |
| --- | --- |
| GGCACTGA | -0.0766 |
| CTAACTTC | 0.105 |
| AGAACATC | 0.157 |
| AATGTGCG | 0.164 |

Taken from above.
In PBM E-score, GGCACTGA has -0.0766
In PBM E-score, CTTAGCAA has 0.152
In PBM E-score, GGACCTCA has -0.133

(continued)

Sequence | PBM E-score
GCGATGCC | -0.291
GTGAGCAA | 0.075
AAGAGCGT | 0.0559
ATTCACAC | 0.118
GCTACGCA | 0.0446
GCTTCTGA | -0.0664
AGACATGA | -0.107
GGAACTTA | 0.111
CTCCGTGC | -0.116
ACAGGGAC | -0.079
ATCAACAG | 0.126
AGATAGAA | -0.0145
GGTATATA | 0.199
AGCTCCAT | -0.00372
ACACTATA | 0.227
GTCTATAA | 0.0252
CATGAGGC | -0.0285
TAAACCCA | 0.119
CTTATCGA | 0.197
GTCATCTA | 0.0267
GACATGCC | -0.0147
AGAAATCT | 0.0393
GGGATTAA | 0.071
ATAAGGAA | -0.0344
CAATAGCG | -0.118

Sequence | PBM E-score
CTATTAAC | 0.141
AGCCCTAC | -0.00995
GTGTTGCA | 0.0674
ATCAGCCG | 0.0966
ACATCCGC | 0.00832
TGGGAGAA | -0.228
ACAGGATG | -0.0633
CATCCGAC | 0.154
ACAGGAGA | 0.091
ACTCCCAG | -0.0146
GGCCTCCC | -0.176
ACTCCCAT | -0.055
AGGGCCAG | -0.106
TGCTTCCA | -0.282
ACTGCAGT | 0.189
CTTCTGGA | -0.161
AGAATTCA | 0.126
ACGAACAT | 0.232
CGCTGTAA | 0.161
ACACATTG | 0.105
CCGGGACG | -0.0924
CATCTCCA | 0.09
ATTGACTG | -0.0463
TTATACAA | 0.229
ATTTTCGG | 0.228

Sequence | PBM E-score
CAGCGTGA | 0.132
AGGACCGA | -0.111
AGGATTTA | 0.0191
ATGTTTAG | 0.209
TCTCCCAA | -0.215
GCTTCACC | -0.0626
CTCATCAG | 0.192
AAGATAAA | 0.204
AGTGTCAT | 0.103
CCTCTATC | -0.08
AAGCGGTA | 0.0576
ACGCGAGG | 0.0276
ACTTGGAG | -0.168
AGTCGACT | 0.287
ACAGATGT | -0.113
GCGCGCGA | 0.265
GGTGCGCA | 0.128
AGGTTTGC | 0.0496
ACTATGGC | -0.0106
TATTCAAA | 0.206
AGTGTGGA | 0.0242
ATTCGACG | 0.112
ATACCCAC | 0.0116
ACATTCCC | 0.125
GACGAAAC | 0.144

Shown with tabs: entries from further up
Sequence	PBM E-score
CGACGCTA	-0.0416
AATGTTAT	0.18

(cont.)

Sequence | PBM E-score
ATGCTTAC | 0.112
AACGGTAG | -0.123
GCACTGGC | -0.0995
GAAAAGCA | 0.0851
CACCAGAC | 0.024
CTTCGAAG | 0.0574
GATCGTGC | 0.163
GCAAGCAA | 0.0279
AATTGGAG | -0.0705
CCGCCGCC | -0.117
ACTCGTCC | -0.177
GAGCACAA | 0.0177
CATGCGAC | 0.0827
CAAATTTA | 0.207
CATAACCG | -0.133
CCCCGGCC | -0.312
ATCTTGTG | -0.0597
AAGGAAGT | -0.0479
AACAAAGC | 0.104
ATCCTCAG | 0.0208
CGCCTCGA | 0.0464
GCAGCATA | 0.135
